Results: patent publication US20110166032A1, “Design and Use of Sortilin Specific Molecular Imaging Ligands” (H. LUNDBECK A/S, priority 2008, published 2011)
No constants are given. Whether binding was seen depends on the method and setting. Some entries that bind do so weakly or less than the wild type.

Sequences of proteins named here, by UniProt entry; tags and fusion partners are left off. A change or cut given only in a name is not applied to a line headed by its entry.
UniProt Q99523: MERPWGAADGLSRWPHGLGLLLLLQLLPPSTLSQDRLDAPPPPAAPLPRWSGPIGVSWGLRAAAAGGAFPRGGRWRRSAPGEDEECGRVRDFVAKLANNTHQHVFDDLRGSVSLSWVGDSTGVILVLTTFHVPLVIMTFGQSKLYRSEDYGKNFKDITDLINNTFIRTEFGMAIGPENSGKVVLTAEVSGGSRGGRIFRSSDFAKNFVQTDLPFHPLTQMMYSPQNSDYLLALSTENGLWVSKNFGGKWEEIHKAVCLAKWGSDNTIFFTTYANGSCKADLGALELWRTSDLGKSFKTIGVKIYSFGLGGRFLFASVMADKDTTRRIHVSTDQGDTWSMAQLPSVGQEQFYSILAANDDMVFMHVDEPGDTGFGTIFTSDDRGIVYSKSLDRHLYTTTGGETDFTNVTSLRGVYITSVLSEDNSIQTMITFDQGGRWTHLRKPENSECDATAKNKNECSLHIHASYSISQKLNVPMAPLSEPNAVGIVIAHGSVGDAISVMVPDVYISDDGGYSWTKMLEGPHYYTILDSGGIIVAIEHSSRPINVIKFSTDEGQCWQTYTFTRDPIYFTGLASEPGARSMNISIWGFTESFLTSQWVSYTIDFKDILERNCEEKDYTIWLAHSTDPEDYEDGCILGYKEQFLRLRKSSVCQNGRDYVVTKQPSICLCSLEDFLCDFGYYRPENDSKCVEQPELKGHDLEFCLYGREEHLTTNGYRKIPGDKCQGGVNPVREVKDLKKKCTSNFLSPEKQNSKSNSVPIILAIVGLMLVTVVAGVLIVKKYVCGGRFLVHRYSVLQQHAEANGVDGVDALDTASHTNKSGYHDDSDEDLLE

Target: sSortilin S316E mutant (human) (UniProt Q99523)
Experiment: SPR, immobilised S316E sSortilin

- binding: binds
B1: Mature BDNF (ligand)
chain: HSDPARRGELSVCDSISEWVTAADKKTAVDMSGGTVTVLEKVPVSKGQLKQYFYETKCNPMGYTKEGCRGIDKRHWNSQCRTTQSYVRALTMDSKKRIGWRFIRIDTSCVCTLTIKRGR
